Results from patent US20240299562A1 (priority 2020, published 2024).
At least one structure is not confirmed: it was looked up by name or label, or the drawing left a doubt. Where a SMILES comes first, the peptide text is derived from it.

Key:
Format in all cases: cell-based
MDA-MB-231 cells = assay: WST-1 cell viability, MDA-MB-231 triple negative breast cancer cells; settings: MDA-MB-231 (TNBC); 72 hrs, WST-1 (Table 2)
Experimental: (§1) All commercial cell lines were purchased at ATCC (LGC Standards SARL, France). Cells were seeded in 96-well plates according to their optimal seeding density, varying between 5.000 and 10.000 cells/well. After attachment overnight, 10-point serial titrations (1:5) were prepared in their equivalent complete media as recommended by ATCC, starting from the 10 mM stock solutions. For doxorubicin comprising prodrugs dilutions started from 100 μM, while for the parent compound doxorubicin dilutions started at 10 μM. […] Seventy-two hours later, compounds were removed together with the supernatants and cells were washed once with PBS to remove excess drugs.
(§2) The WST-1 assay for cell proliferation and viability (Roche, Switzerland) was performed according to manufacturer's protocol. Absorbances were measured at 4 hrs using a Perkin Elmer Ensight multiplate reader, equipped with Kaleido 2.0 software (Perkin Elmer, USA). Cell viability was expressed as a percentage compared to non-treated cells. Absolute IC50 values were extrapolated from a non-linear fitting following the Sigmoidal-4PL regression method using Graphpad Prism 7.0. Likewise, maximal efficacy was determined as 100% minus the cell viability determined when cells are incubated in the presence of a compound. […]

NCI-H292 cells = assay: WST-1 cell viability, NCI-H292 lung cancer cells; settings: NCI-H292 (NSCLC); 72 hrs, WST-1 (Table 2)
Experimental: as §1, §2

MDA-MB-468 cells = assay: WST-1 cell viability, MDA-MB-468 triple negative breast cancer cells; settings: MDA-MB-468 (TNBC); 72 hrs, WST-1 (Table 2)
Experimental: as §1, §2

A2780 cells = assay: WST-1 cell viability, A2780 ovarian cancer cells; settings: A2780 (OvC); 72 hrs, WST-1 (Table 2)
Experimental: as §1, §2

A2780 Cp cells = assay: WST-1 cell viability, A2780 CpR (cisplatin resistant) ovarian cancer cells; settings: A2780 Cp (OvC); 72 hrs, WST-1 (Table 2)
Experimental: as §1, §2

A2058 cells = assay: WST-1 cell viability, A2058 melanoma cells; settings: 72 hrs, WST-1 (Table 2)
Experimental: as §1, §2

A-172 cells = assay: WST-1 cell viability, A-172 glioblastoma cells; settings: A-172 (GBM); 72 hrs, WST-1 (Table 2)
Experimental: as §1, §2

HCT-116 cells = assay: WST-1 cell viability, HCT-116 colorectal cancer cells; settings: HCT-116 (CrC); 72 hrs, WST-1 (Table 2)
Experimental: as §1, §2

U-87 MG cells = assay: WST-1 cell viability, U-87 MG glioblastoma cells; settings: U-87 MG (GBM); 72 hrs, WST-1 (Table 2)
Experimental: as §1, §2

DU145 cells = assay: WST-1 cell viability, DU145 prostate cancer cells; settings: DU145 (PrC); 72 hrs, WST-1 (Table 2)
Experimental: as §1, §2

NCI-1299 cells = assay: WST-1 cell viability, NCI-H1299 lung cancer cells; settings: NCI-1299 (NSCLC); 72 hrs, WST-1 (Table 2)
Experimental: as §1, §2

LS 174T cells = assay: WST-1 cell viability, LS 174T colorectal cancer cells; settings: LS 174T (CrC); 72 hrs, WST-1 (Table 2)
Experimental: as §1, §2

MIA PaCa-2 cells = assay: WST-1 cell viability, MIA PaCa-2 pancreatic cancer cells; settings: MIA PaCa-2 (PaC); 72 hrs, WST-1 (Table 2)
Experimental: as §1, §2

Compound: COc1cccc2c1C(=O)c1c(O)c3c(c(O)c1C2=O)C[C@@](O)(C(=O)CO)C[C@@H]3O[C@H]1C[C@H](NC(=O)[C@@H]2CCCN2C(=O)CNC(=O)[C@H](CC(C)C)NC(=O)[C@H](C)NC(=O)CP(=O)(O)O)[C@H](O)[C@H](C)O1 [PhAc-ALGP-Dox, reference compound] (HELM PEPTIDE1{[O=C(CP(=O)(O)O)[*:2]].A.L.G.P.[COc1cccc2c1C(=O)c1c(O)c3c(c(O)c1C2=O)C[C@@](O)(C(=O)CO)C[C@@H]3O[C@H]1C[C@H](N[*:1])[C@H](O)[C@H](C)O1]}$$$$V2.0)
- Maximal efficacy, cytotoxicity (%) at 100 μM (MDA-MB-231 cells): 88.97%
- Maximal efficacy, cytotoxicity (%) at 100 μM (NCI-H292 cells): 60.64%
- Maximal efficacy, cytotoxicity (%) at 100 μM (MDA-MB-468 cells): 94.90%
- Maximal efficacy, cytotoxicity (%) at 100 μM (A2780 cells): 82.68%
- Maximal efficacy, cytotoxicity (%) at 100 μM (A2780 Cp cells): 86.43%
- Maximal efficacy, cytotoxicity (%) at 100 μM (A2058 cells): 97.79%
- Maximal efficacy, cytotoxicity (%) at 100 μM (A-172 cells): 96.32%
- Maximal efficacy, cytotoxicity (%) at 100 μM (HCT-116 cells): 66.44%
- Maximal efficacy, cytotoxicity (%) at 100 μM (U-87 MG cells): 69.54%
- Maximal efficacy, cytotoxicity (%) at 100 μM (DU145 cells): 87.15%
- Maximal efficacy, cytotoxicity (%) at 100 μM (NCI-1299 cells): 79.14%
- Maximal efficacy, cytotoxicity (%) at 100 μM (LS 174T cells): 64.94%
- Maximal efficacy, cytotoxicity (%) at 100 μM (MIA PaCa-2 cells): 91.53%
